Library screen at single concentrations

Amino acid sequences for entries named in this document (tags omitted).
UniProt P9WNZ1, whole entry: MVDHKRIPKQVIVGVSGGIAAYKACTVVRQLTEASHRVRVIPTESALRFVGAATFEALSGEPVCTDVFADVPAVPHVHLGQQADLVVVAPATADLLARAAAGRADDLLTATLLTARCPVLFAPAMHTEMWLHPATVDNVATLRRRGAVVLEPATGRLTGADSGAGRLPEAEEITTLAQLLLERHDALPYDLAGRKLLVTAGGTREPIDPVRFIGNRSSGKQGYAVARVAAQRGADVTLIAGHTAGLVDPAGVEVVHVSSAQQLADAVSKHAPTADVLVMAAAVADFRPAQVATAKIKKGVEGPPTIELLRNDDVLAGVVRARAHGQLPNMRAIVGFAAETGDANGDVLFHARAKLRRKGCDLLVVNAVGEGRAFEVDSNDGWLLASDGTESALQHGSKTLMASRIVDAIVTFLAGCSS

The values are deposited in ChEMBL (CHEMBL3988442, “University of Dundee, Small-Polar-MMV Screening Library” (2021)).

Toxoplasma: 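Assay of Toxoplasma gondii numbers, read through their beta-galactosidase reporter with a colour substrate. Concentration: 10 µM. The record gives no direction; the compounds picked for IC50 retests had high values, so higher reads as fewer parasites. About 67,000 compounds were tested under these conditions; 0.38% (about 260) showed 50% or more at least once.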
CoaBC: 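Enzyme assay of CoaBC with a phosphate dye (Biomol Green) read at 650 nm. Target: Coenzyme A biosynthesis protein CoaBC, Mycobacterium tuberculosis (UniProt P9WNZ1). Tested at 30 µM. Direction is inferred from only a few compounds that gave an IC50; most scored high, so higher reads as stronger inhibition. Most strong results did not repeat in a second test. About 67,000 compounds were tested under these conditions; 0.06% (about 40) showed 50% or more at least once.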

Each number is a percent effect as filed. The controls that fix the scale are not given in the record; negative values are as filed. The compounds are a random part of those screened. Two or more numbers in one place are separate tests of the same structure; such repeats can differ widely. A dash means the value is not listed here; it may have been measured.

| # | Compound | Toxoplasma | CoaBC |
|---|---|---|---|
| 1 | `CC(C)NCc1cccnc1N1CCN(c2ccccn2)CC1` | -3.823% | 3.045% |
| 2 | `Fc1cnc(N2CCCn3c(nnc3Cn3cccc3)C2)nc1` | - | 2.415% |
| 3 | `COc1cccc(S(=O)(=O)CCNCCn2cccn2)c1` | -0.5823% | -0.2451% |
| 4 | `O=C(O)C(F)(F)F.O=C(O)C(F)(F)F.c1cncc(OC[C@@H]2CCC[C@@]23CN(Cc2nccs2)CCO3)c1` | -2.57% | - |
| 5 | `COc1c(Cl)cc(Cl)cc1CN1CCC(C(N)=O)C1` (stereo not given) | 16.3% | 20.31% & 11.86% |
| 6 | `CCC(=O)NC1CCCN(C(=O)Nc2cc(-c3ccccc3)on2)C1` (stereo not given) | 6.404% | 2.733% |
| 7 | `NC(=O)CCCNC(=O)Cc1csc(Cc2ccccn2)n1` | 6.721% | 1.152% |
| 8 | `COC[C@@]12CC[C@@H](N3CCOCC3)C[C@H]1CCN(c1ncccn1)C2` | - | 11.4% |
| 9 | `[H][C@@]12CCN(C(=O)COc3ccccc3OC)C[C@]1(COC)CCO2` | 11.54% | - |
| 10 | `COCCN(C)CC1CCCN1S(=O)(=O)c1cccc(F)c1F` (stereo not given) | 10.68% | -8.104% |
| 11 | `O=C(O)C(F)(F)F.[H][C@]12CC[C@@]3(N=C(CC)NC3=O)[C@@]1([H])CN(CC(C)C)C2` | -17.63% | - |
| 12 | `COCC1c2c(cnn2C)CCN1Cc1ccc(C)o1` (stereo not given) | -3.068% | 2.256% |
| 13 | `Cc1nc(CNC(=O)NCC(O)c2cccc(Cl)c2)cs1` (stereo not given) | -1.731% | -1.066% |
| 14 | `CCOCC1COCCC12CCN(C(=O)C1=CCCC1)CC2` (stereo not given) | -3.182% | - |
| 15 | `Cc1ncsc1C(=O)NC1CCN(c2ncccc2C#N)CC1` | -3.058% | 1.827% |
| 16 | `CC(C)CC(=O)N1CCc2ccc(S(=O)(=O)N3CCN(C)CC3)cc2C1` | 0.7789% | 0.7453% |
| 17 | `Oc1cc(C2CCCCN2C2CCCC2)nc(-c2cccnc2)n1` (stereo not given) | 4.085% | -6.503% |
| 18 | `Cc1nc(C)c(C(=O)NCCNC(=O)Cc2cccc(F)c2)s1` | 5.17% | 8.769% |
| 19 | `CN(C)C(=O)COCC1C[C@@H]2OCCN(Cc3ccco3)[C@H]2C1` (stereo not given in full) | - | 1.057% |
| 20 | `CCOc1ccc(Cl)c(C(=O)NCCc2ncc[nH]2)n1` | 5.164% | 0% |
| 21 | `CCCN1CCC2(Cc3ccccc3NC2=O)C1` (stereo not given) | 0.9798% | 3.462% |
| 22 | `O=C(Nc1ncn(CC(=O)N2CCCCCC2)n1)C1CCCO1` (stereo not given) | -21.88% | -1.33% |
| 23 | `CNC(=O)[C@H]1C[C@@H]2CN(C(=O)NC(C)C)C[C@H]1O2` | - | -2.463% |
| 24 | `[H][C@]12CCCCN1CCC[C@@]2(O)CNCCCNc1cccnc1` | -41.98% | - |
| 25 | `CC1CCN(C(=O)C(C)Oc2ccc3c(c2)OCO3)CC1` (stereo not given) | 14.88% | 1.952% |
| 26 | `O=C(O)C(F)(F)F.[H][C@@]12COC[C@]1(CNC(=O)c1cscn1)CN(Cc1nccs1)C2` | 8.341% | - |
| 27 | `CC(=O)N1CC(=O)N(c2cnn(C)c2)CC12CCN(Cc1cccs1)C2.O=C(O)C(F)(F)F` (stereo not given) | 9.698% | - |
| 28 | `O=C(O)C(F)(F)F.[H][C@]12CCN(Cc3ccc(OC)cc3)C[C@@]1([H])OCCN(S(C)(=O)=O)C2` | 6.803% | - |
| 29 | `O=C(CCc1ccc(-n2cnnn2)cc1)Nc1ccncc1` | 4.894% | 1.695% |
| 30 | `c1cncc(CN2CCc3ncnc(C4CCOC4)c3CC2)c1` (stereo not given) | - | -1.058% & 20.98% |
| 31 | `Cc1nc(CN2CCC(CNC(=O)C3(C#N)CCCC3)CC2)oc1C` | 9.681% | -4.721% |
| 32 | `COc1nc2c(cc1C(=O)N1C[C@@H](N)C[C@H]1C(=O)NC(C)C)CCC2` | -5.726% | 4.405% |
| 33 | `O=C(O)C(F)(F)F.O=C1CCCN1Cc1nnc2n1CCN(Cc1ccccn1)CC2` | -12.09% | - |
| 34 | `CCOC(=O)c1cnn(-c2cc(Oc3ccccc3C)ncn2)c1N` | -30.21% | -2.659% |
| 35 | `CC(C)c1ccc(OCn2ccc(C(=O)N3CCCC3)n2)cc1` | 17.23% | 0.9091% |
| 36 | `O=C1CCOCCN1Cc1ccc(Cl)c(F)c1` | -14.51% | 2.609% |
| 37 | `c1cncc(-c2noc(C3CN(Cc4cccs4)C3)n2)c1` | - | -1.057% |
| 38 | `O=C(CCNc1ncccn1)N1CCC(Nc2cccnn2)CC1` | 0.6865% | 2.171% |
| 39 | `COC(=O)CNC(=O)c1sccc1N(C)S(=O)(=O)c1ccc(Cl)cc1` | 28.87% | 6.192% |
| 40 | `CN1CCN(c2cc(N3CCCC3CO)ncn2)Cc2ccccc21` (stereo not given) | 4.053% | -4.968% |
| 41 | `Cc1cnc(CN(C)C2CCN(Cc3nnc(C4CC4)o3)C2)o1` (stereo not given) | 7.98% | -7.239% |
| 42 | `COCCN(C)C[C@@H]1CN(C(=O)c2ccoc2)C[C@@H]1CO` | 21.93% | -5.757% |
| 43 | `Cc1ccc(C(=O)N2CCC(Oc3ccc(C)c(C)c3)CC2)c(=O)[nH]1` | 5.108% | 6.21% |
| 44 | `Cc1ncsc1CNc1cc(N2CCCC2CO)ncn1` (stereo not given) | -5.643% | -8.311% |
| 45 | `O=C(O)C(F)(F)F.O=C(O)C(F)(F)F.[H][C@@]12CO[C@@H](CN(C)Cc3cccnc3)[C@]1([H])CCN(C(=O)C1CC1)C2` | 7.278% | - |
| 46 | `O=C(c1cnc(O)cn1)N(Cc1ccsc1)CC1CCCO1` (stereo not given) | 7.495% | 4.878% |
| 47 | `CCN(Cc1c(C)nn(C)c1C)C(=O)C1COc2ccccc2C1` (stereo not given) | -13.66% | 5.983% |
| 48 | `O=C(c1cscn1)N1CC[C@]2(C[C@@H](OCCN3CCCC3)CO2)C1` | - | 1.554% |
| 49 | `Cc1cc(C)n(CC2CN(Cc3nnsc3Cl)CCO2)n1` (stereo not given) | -8.892% | 1.862% |
| 50 | `COc1cccc(C(C)N2CCN(S(C)(=O)=O)CC2)c1` (stereo not given) | -0.5394% | - |
| 51 | `O=C(c1cccs1)N1CCc2c(nc(N3CCCC3)[nH]c2=O)C1` | -4.013% | -1.961% |
| 52 | `[H][C@@]12CN(c3ncc(C)cn3)C[C@@]1([H])N(C)C(=O)CO2` | -4.415% | - |
| 53 | `c1cc2c(cc1C1(CNC3=NCCN3)CCCC1)OCCO2` | - | -30.94% |
| 54 | `COCC(=O)N1CCCC2(COCCN(CCN(C)C)C2)C1` (stereo not given) | - | -29.71% |
| 55 | `O=C(Nc1nnc[nH]1)C(c1cccc(F)c1)N1CCOCC1` (stereo not given) | 0.4651% | 5.785% |
| 56 | `CN1CCN(C2CCN(CC(O)c3ccccc3F)CC2)C1=O` (stereo not given) | 10.89% | -12.08% |
| 57 | `COc1cc(CNC(=O)COC2CCCCC2)ccc1O` | 1.262% | 5.223% |
| 58 | `COc1cccc(-n2c(C)cc(C(=O)O)c2C)c1` | - | 0.7712% |
| 59 | `c1cnc(N2CCCC(c3cc4cccnc4[nH]3)C2)nc1` (stereo not given) | 4.067% | 1.854% |
| 60 | `O=C1CO[C@H](c2ccc(NS(=O)(=O)Cc3ccccc3)cc2)[C@@H](CO)N1` | -4.189% | -12.38% |
| 61 | `CN1C(=O)CO[C@H](c2ccc(NC(=O)Nc3ccccc3)cc2)[C@H]1CO` | -7.196% | 0.2208% |
| 62 | `CN(CC(N)=O)Cc1c(Cl)ccc2cccnc12` | 2.304% | -25% |
| 63 | `O=C1NC[C@@]2(C(=O)O)CN(Cc3cccc(OC4CCCC4)c3)C[C@@H]12` | - | -0.2016% |
| 64 | `O=C(O)C(F)(F)F.O=C(O)C(F)(F)F.c1cncc(C2COC3(CCN(CC4CC4)CC3)C2)c1` (stereo not given) | 1.381% | - |
| 65 | `O=C(COCC(F)(F)F)NS(=O)(=O)c1ccc2c(c1)OCCCO2` | -22.29% | 2.999% |
| 66 | `CCC(CNC(=O)c1ccccn1)N1CCc2ccccc2C1` (stereo not given) | 0.5057% | 1.923% |
| 67 | `O=C(c1cccs1)N1C[C@H]2CCC[C@@]2(COCC2CCOCC2)C1` | - | 3.854% |
| 68 | `O=C(O)C(F)(F)F.[H][C@]12CCN(CCOC)[C@@]1([H])CCC(COCC(=O)N1CCCC1)O2` (stereo not given in full) | -33.21% | - |
| 69 | `CC(=O)N1CCN(C(=O)NCc2csc(Br)c2)CC1` | 3.662% | 1.012% |
| 70 | `CS(=O)(=O)NCCC1CCCCN1C(=O)NCCc1ccccc1` (stereo not given) | -5.23% | 8.726% |
| 71 | `Cc1nc(CC(=O)NCCNc2nccc(C(F)(F)F)n2)cs1` | -12.95% | -3.64% |
| 72 | `[H][C@]12CNC[C@@]1(C(=O)NCCC1(O)CCN(C)CC1)CN(C1CCCC1)C2` | -1.623% | - |
| 73 | `Cc1ocnc1C(=O)N(C)[C@@H]1CC[C@@H](Oc2ccccc2)[C@@H]1O` | -6.438% | -4.795% |

9 of the entries, repeated:

Fc1cnc(N2CCCn3c(nnc3Cn3cccc3)C2)nc1 read CoaBC: 2.415%.
CC(C)CC(=O)N1CCc2ccc(S(=O)(=O)N3CCN(C)CC3)cc2C1 read Toxoplasma: 0.7789%; CoaBC: 0.7453%.
CNC(=O)[C@H]1C[C@@H]2CN(C(=O)NC(C)C)C[C@H]1O2 read CoaBC: -2.463%.
Cc1cnc(CN(C)C2CCN(Cc3nnc(C4CC4)o3)C2)o1 (stereo not given) read Toxoplasma: 7.98%; CoaBC: -7.239%.
O=C(O)C(F)(F)F.O=C(O)C(F)(F)F.c1cncc(C2COC3(CCN(CC4CC4)CC3)C2)c1 (stereo not given) read Toxoplasma: 1.381%.
c1cc2c(cc1C1(CNC3=NCCN3)CCCC1)OCCO2 read CoaBC: -30.94%.
COCC1c2c(cnn2C)CCN1Cc1ccc(C)o1 (stereo not given) read Toxoplasma: -3.068%; CoaBC: 2.256%.
CC(=O)N1CCN(C(=O)NCc2csc(Br)c2)CC1 read Toxoplasma: 3.662%; CoaBC: 1.012%.
COc1cccc(-n2c(C)cc(C(=O)O)c2C)c1 read CoaBC: 0.7712%.